Data: patent publication US20220119540A1 (NANJING GENSCRIPT BIOTECH, published 2022)
These are yes or no findings as the source states them, for the method shown. Binding can be weak; no strength is given.

B1: AH02913 humanized anti-human OX40 monoclonal antibody (recombinant human IgG1/kappa) (antibody, V domains shown)
VH: QVQLVQSGPEVKKPGASVKVSCKASGYTFTDYSMHWVKQAPGQGLEWMGWISTETGEPTYADDFKGRVTITLDTSASTAYMELSSLRSEDTAVYFCARVRPWYLAVWGQGTLVTVSS
VL: DIQMTQSPSSLSASVGDRVTITCRASQDISNYLNWYQQKPGKAVKLLIYYTSRLYSGVPSRFSGSGSGTDYTFTISSLQPEDIATYFCQQANTLPLTFGGGTKLEIK
B2: AH02916 humanized anti-human OX40 monoclonal antibody (recombinant human IgG1/kappa) (antibody, V domains shown)
VH: QVQLVQSGAEVKKPGASVKVSCKASGYTFTDYSMHWVKQAPGQGLEWMGWISTETGEPTYADDFKGRVTITLDTSASTAYMELSSLRSEDTAVYYCARVRPWYLAVWGQGTLVTVSS
VL: DIQMTQSPSSLSASVGDRVTITCRASQDISNYLNWYQQKPGKAVKLLIYYTSRLYSGVPSRFSGSGSGTDYTFTISSLQPEDIATYFCQQANTLPLTFGGGTKLEIK
B3: AH02919 humanized anti-human OX40 monoclonal antibody (recombinant human IgG1/kappa) (antibody, V domains shown)
VH: QVQLVQSGAEVKKPGASVKVSCKASGYTFTDYSMHWVKQAPGQGLEWMGWISTETGEPTYADDFKGRVTITRDTSASTAYLEISSLRSEDTAVYFCARVRPWYLAVWGQGTLVTVSS
VL: DIQMTQSPSSLSASVGDRVTITCRASQDISNYLNWYQQKPGKAVKLLIYYTSRLYSGVPSRFSGSGSGTDYTLTISSLQPEDIATYYCQQANTLPLTFGGGTKLEIK
B4: AH02921 humanized anti-human OX40 monoclonal antibody (recombinant human IgG1/kappa) (antibody, V domains shown)
VH: QVQLVQSGPEVKKPGASVKVSCKASGYTFTDYSMHWVRQAPGQGLEWMGWISTETGEPTYADDFKGRFTITLDTSASTAYLEISSLRSEDTAVYFCARVRPWYLTVWGQGTLVTVSS
VL: DIQMTQSPSSLSASVGDRVTITCRASQDISNYLNWYQQKPGKAPKLLIYYTSRLYSGVPSRFSGSGSGTDYTLTISSLQPEDIATYFCQQANTLPLTFGGGTKLEIK
B5: AH02923 humanized anti-human OX40 monoclonal antibody (recombinant human IgG1/kappa) (antibody, V domains shown)
VH: QVQLVQSGAEVKKPGASVKVSCKASGYTFTDYSMHWVRQAPGQGLEWMGWISTETGEPTYADDFKGRFTFTLDTSASTAYLELSSLRSEDTAVYYCARVRPWYLAVWGQGTLVTVSS
VL: DIQMTQSPSSLSASVGDRVTITCRASQDISNYLNWYQQKPGKAVKLLIYYTSRLYSGVPSRFSGSGSGTDYTFTISSLQPEDIATYYCQQANTLPLTFGGGTKLEIK
B6: Chimeric antibody (anti-human OX40, recombinant, human IgG1/kappa constant regions) (antibody, V domains shown)
VH: QIQLVQSGPELKKPGETVKISCKASGYTFTDYSMHWVKQAPGKGLKWMGWISTETGEPTYADDFKGRFAFSLETSASTAYLQIKNLKNEDTASYFCARVRPWYLAVWGAGTTVTVSS
VL: DIQMTQTTSSLSASLGDRVTISCRASQDISNYLNWYQQKPDGTVKLLIYYTSRLYSGVPSRFSGSGSGADYSLTVSNLEQEDIATYFCQQANTLPLTFGAGTKLELK

Experiments:
[1] = biological target: Recombinant monkey OX-40 protein (monkey); test: ELISA; plate coated with recombinant monkey OX-40 protein, antibody from 1000 ng/ml in 3-fold dilutions, HRP goat anti-human Fab, OD450
[2] = biological target: Recombinant monkey OX-40 protein (monkey); test: ELISA on coated recombinant protein

Row | Binder | binding [1] | binding [2]
1 | B1 | binds | binds
2 | B2 | binds | binds
3 | B3 | binds | binds
4 | B4 | binds | binds
5 | B5 | binds | binds
6 | B6 | binds | binds
